Consider three molecules from PMC6879167.

Results are given in words; binding and its absence hold for the method and conditions named. For part of these data: Binding seen in cells or lysates may run through a third protein. Some binding calls cover weakened binding; strength is not graded here. For part of these data: Where a sequence is shown, tags or fusion partners need not be part of it.

In test [1] the target is T1, human DSTN overexpressed in HEK 293T cells (pcDNA3.1/hDSTN) (human) (UniProt P60981).
T1 sequence: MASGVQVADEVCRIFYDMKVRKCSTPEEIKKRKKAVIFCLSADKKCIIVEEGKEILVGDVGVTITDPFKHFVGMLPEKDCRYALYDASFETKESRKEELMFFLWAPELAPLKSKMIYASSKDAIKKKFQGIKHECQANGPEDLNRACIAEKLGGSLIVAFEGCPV
The test can be described thus: co-IP; HEK 293T co-transfected with pcDNA3.1/hIL-38 and pcDNA3.1/hDSTN; cellular proteins crosslinked with DSP 48 h after transfection; lysis in 20 mM Tris/HCl pH 8, 137 mM NaCl, 1% Nonidet P-40, 2 mM EDTA; IP with polyclonal anti-DSTN or anti-IL-38 antibody, normal IgG as negative control; Western blot. A general note: A western blot detects proteins with antibodies after separation by electrophoresis.

Test [2] has as its target T2, endogenous DSTN in NHK/38 cells (human (endogenous in NHK/38 cells)) (UniProt P60981).
T2 sequence: T1 sequence
The test can be described thus: proximity ligation; NHK/38 cells with 24h Dox (1 μg/ml), fixed and permeabilized; goat anti-IL38 and rabbit anti-DSTN antibodies, DuoLink PLA probes; confocal microscopy.

Test [3] deals with T3, human IL-38 (aa 30–152) bait, N-LexA(DBD)-IL-38(aa30-152)-C fusion (human) (UniProt Q8WWZ1).
T3 sequence: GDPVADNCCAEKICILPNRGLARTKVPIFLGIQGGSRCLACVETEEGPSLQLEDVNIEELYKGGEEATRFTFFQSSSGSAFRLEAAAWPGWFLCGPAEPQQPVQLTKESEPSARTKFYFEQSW
The test can be described thus: two-hybrid; ULTImate Y2H screen (Hybrigenics Services); bait N-LexA(DBD)-IL-38(aa30-152)-C in pB27; prey library human reconstituted skin_RP2 at 10-fold coverage; 100.0 mM 3-AT to overcome auto-activation of the bait; only A-ranked preys listed.

B1: human full-length IL-38 overexpressed in HEK 293T cells (pcDNA3.1/hIL-38) (protein, UniProt Q8WWZ1-1 1-152)
chain: MCSLPMARYYIIKYADQKALYTRDGQLLVGDPVADNCCAEKICILPNRGLARTKVPIFLGIQGGSRCLACVETEEGPSLQLEDVNIEELYKGGEEATRFTFFQSSSGSAFRLEAAAWPGWFLCGPAEPQQPVQLTKESEPSARTKFYFEQSW
B1: the binding entry in test [1] is “binds”.

B2: human full-length IL-38 overexpressed in NHK/38 keratinocytes (pcDNA4/TO/hIL-38, Dox-inducible) (protein, UniProt Q8WWZ1-1 1-152)
chain: B1 chain
Turning to B2, the binding entry in test [2] was “binds”.

B3: destrin/actin-depolymerizing factor (DSTN), yeast two-hybrid prey fragments (domain or fragment, UniProt P60981 43-148)
chain: DKKCIIVEEGKEILVGDVGVTITDPFKHFVGMLPEKDCRYALYDASFETKESRKEELMFFLWAPELAPLKSKMIYASSKDAIKKKFQGIKHECQANGPEDLNRACI
On to B3, for which, in test [3], the binding result was “binds”.
